Measured values from US20120171123A1, “USES AND COMPOSITIONS FOR TREATMENT OF RHEUMATOID ARTHRITIS” (priority 2006, published 2012).

Tested on: MTX-naïve adult patients with early RA (<3 years)
Experiment: Study J: escalation of injectable medicine from eow to weekly dosing
Assay type: in vivo, human
Conditions: MTX arm escalated placebo injections
Description: Study J was a 2-year, double-blind, active comparator-controlled, Phase III study. […] In patients receiving ADA+MTX or MTX monotherapy, the 7.5 mg MTX weekly dosage increased to 20 mg over 8 weeks, as tolerated and as needed. Monotherapy patients received either placebo pills (adalimumab arm) or placebo injections (MTX arm). Efficacy outcomes measured included ACR response, DAS28 remission, major clinical response, and radiographic change from baseline.
MTX optimization was required before starting weekly injections (to 20 mg weekly, maximum). Once initiated, weekly dosing of injectable medicine was to be maintained until end of study. Criteria for identification of dosage escalators were a sequence of 4 consecutive injections for which the interval for every two consecutive injections was ≦10 days, and/or that the date of escalation, defined as the second of the 4 injections, had to be on or after Week 16 in Year 1. […] Data are from the intention-to-treat (ITT) population, with missing data analyzed by non-responder imputation (NRI) for clinical measures and by linear imputation for total Sharp scores (TSS).

With “adalimumab: human anti-TNF mAb (HUMIRA, Abbott Laboratories), described in U.S. Pat. No. 6,090,382 as D2E7” the “Dosage Escalators (injectable medicine to weekly), %” value (Weeks 16-30) was 22% and the “Dosage Escalators (injectable medicine to weekly), %” value (Year 1 (total)) was 25%.
